Only a part is listed here, and it is no random draw. At the low end of the ranking the order means little.
Each sequence was assayed against T1, FEV (UniProt Q99581) (assay: DAPPL (digital affinity profiling via proximity ligation, sequencing)). Details: 10 mM Tris-HCl pH 7.5, 50 mM NaCl, 1 mM DTT, 4% glycerol, room temperature, 30 min; GST-TFs on glutathione beads, 16-mer random dsDNA library, 0.1% …; high values mean tight binding; double strand, one strand shown; scale: fold enrichment (6-mer frequency, TF over GST control).
T1 sequence: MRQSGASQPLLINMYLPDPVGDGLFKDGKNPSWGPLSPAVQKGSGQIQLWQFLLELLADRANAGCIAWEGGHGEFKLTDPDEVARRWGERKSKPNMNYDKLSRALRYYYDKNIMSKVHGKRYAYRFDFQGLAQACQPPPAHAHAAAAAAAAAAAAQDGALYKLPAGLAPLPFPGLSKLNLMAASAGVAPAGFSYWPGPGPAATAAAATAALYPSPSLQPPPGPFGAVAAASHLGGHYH

Row | Sequence | binding signal
1 | ATACGT | 1.11
2 | TTACCG | 1.26
3 | TCTAAG | 1.13
4 | AGCCCT | 1.14
5 | GTATAT | 1.06
6 | CCTGGT | 1.25
7 | CTGCAA | 1.29
8 | ACTAAG | 1.02
9 | CTATAA | 1.16
10 | ATCTCT | 1.29
11 | AATGAT | 1.18
12 | TGCTTC | 2.29
13 | TATGCG | 1.26
14 | ATTACG | 1.16
15 | TCCCCA | 1.33
16 | GCTCCT | 1.46
17 | ATGAGC | 1.24
18 | ATGCAA | 1.23
19 | TCCCCT | 1.71
20 | ATACTG | 1.04

Row | Sequence | binding signal
21 | TTGTAC | 1.52
22 | AAGCAG | 1.09
23 | TATACT | 1.29
24 | AATTCA | 1.24
25 | TTGTCC | 1.34
26 | GATGGC | 1.33
27 | CAATCC | 1.17
28 | AAATCC | 2.56
29 | CTCCTT | 1.75
30 | CGATCC | 1.2
31 | TAGTAA | 0.946
32 | ACCTGC | 1.5
33 | TCCTAT | 1.41
34 | TTAATT | 1.31
35 | CTTCAT | 1.46
36 | ATCTAG | 1.04
37 | ACCGAT | 1.06
38 | TTCAAG | 1.2
39 | TCCCGC | 1.46

From entry 11 to 13, copied from above:
Row | Sequence | binding signal
11 | AATGAT | 1.18
12 | TGCTTC | 2.29
13 | TATGCG | 1.26
